Consider one molecule from patent publication US20160304625A1.

In experiment [1] the target is human membrane bound IgG with lambda light chain (mIgG-lambda) (human). Briefly: hemadsorption, viable CRL 2289 cells.
For experiment [2] the target is unchanged. As to the kind of experiment: ELISA sandwich assay of cell lysate, CRL 2289. Background: ELISA stands for enzyme-linked immunosorbent assay.

No constants are given. Whether binding was seen depends on the method and setting.

B1: monoclonal antibody mAb4-2b (antibody, mouse IgG1, V domains shown)
VH: EVQLEESGAELVKPGASLKLSCKASGYTFTSYWMNWVKQRPGQGLEWIGIIHPNSGSTNYNEKFKTKATLTVDKSSSTAYMQLSSLTSEDSAVYYCARTRGNYGMDYWGQGTSVTVSS
VL: DIVMTQSHKFMSTSVGDRVSITCKASQDVSTAVAWYQQKPGQSPTLLIYSASYRNTGVPDRFTGSGSGTDFTFTISSVQAEDLAVYYCQQHFSIPPLTFGAGTKLELKR
With B1, the binding result in experiment [1] and in experiment [2] was “no binding” throughout.
